In paper PMC3359313 one finds binding data, which are given here for 1 substance.

The chains behind the UniProt entries cited, without tags or fusion partners. Where a name states a change or a piece, a line headed by the entry shows the natural chain unless it says otherwise.
UniProt P61586: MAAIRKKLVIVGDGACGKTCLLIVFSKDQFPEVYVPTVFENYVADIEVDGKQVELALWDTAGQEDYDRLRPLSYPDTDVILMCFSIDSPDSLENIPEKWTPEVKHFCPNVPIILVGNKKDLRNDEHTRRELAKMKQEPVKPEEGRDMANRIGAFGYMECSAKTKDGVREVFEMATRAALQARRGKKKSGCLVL
UniProt P97433: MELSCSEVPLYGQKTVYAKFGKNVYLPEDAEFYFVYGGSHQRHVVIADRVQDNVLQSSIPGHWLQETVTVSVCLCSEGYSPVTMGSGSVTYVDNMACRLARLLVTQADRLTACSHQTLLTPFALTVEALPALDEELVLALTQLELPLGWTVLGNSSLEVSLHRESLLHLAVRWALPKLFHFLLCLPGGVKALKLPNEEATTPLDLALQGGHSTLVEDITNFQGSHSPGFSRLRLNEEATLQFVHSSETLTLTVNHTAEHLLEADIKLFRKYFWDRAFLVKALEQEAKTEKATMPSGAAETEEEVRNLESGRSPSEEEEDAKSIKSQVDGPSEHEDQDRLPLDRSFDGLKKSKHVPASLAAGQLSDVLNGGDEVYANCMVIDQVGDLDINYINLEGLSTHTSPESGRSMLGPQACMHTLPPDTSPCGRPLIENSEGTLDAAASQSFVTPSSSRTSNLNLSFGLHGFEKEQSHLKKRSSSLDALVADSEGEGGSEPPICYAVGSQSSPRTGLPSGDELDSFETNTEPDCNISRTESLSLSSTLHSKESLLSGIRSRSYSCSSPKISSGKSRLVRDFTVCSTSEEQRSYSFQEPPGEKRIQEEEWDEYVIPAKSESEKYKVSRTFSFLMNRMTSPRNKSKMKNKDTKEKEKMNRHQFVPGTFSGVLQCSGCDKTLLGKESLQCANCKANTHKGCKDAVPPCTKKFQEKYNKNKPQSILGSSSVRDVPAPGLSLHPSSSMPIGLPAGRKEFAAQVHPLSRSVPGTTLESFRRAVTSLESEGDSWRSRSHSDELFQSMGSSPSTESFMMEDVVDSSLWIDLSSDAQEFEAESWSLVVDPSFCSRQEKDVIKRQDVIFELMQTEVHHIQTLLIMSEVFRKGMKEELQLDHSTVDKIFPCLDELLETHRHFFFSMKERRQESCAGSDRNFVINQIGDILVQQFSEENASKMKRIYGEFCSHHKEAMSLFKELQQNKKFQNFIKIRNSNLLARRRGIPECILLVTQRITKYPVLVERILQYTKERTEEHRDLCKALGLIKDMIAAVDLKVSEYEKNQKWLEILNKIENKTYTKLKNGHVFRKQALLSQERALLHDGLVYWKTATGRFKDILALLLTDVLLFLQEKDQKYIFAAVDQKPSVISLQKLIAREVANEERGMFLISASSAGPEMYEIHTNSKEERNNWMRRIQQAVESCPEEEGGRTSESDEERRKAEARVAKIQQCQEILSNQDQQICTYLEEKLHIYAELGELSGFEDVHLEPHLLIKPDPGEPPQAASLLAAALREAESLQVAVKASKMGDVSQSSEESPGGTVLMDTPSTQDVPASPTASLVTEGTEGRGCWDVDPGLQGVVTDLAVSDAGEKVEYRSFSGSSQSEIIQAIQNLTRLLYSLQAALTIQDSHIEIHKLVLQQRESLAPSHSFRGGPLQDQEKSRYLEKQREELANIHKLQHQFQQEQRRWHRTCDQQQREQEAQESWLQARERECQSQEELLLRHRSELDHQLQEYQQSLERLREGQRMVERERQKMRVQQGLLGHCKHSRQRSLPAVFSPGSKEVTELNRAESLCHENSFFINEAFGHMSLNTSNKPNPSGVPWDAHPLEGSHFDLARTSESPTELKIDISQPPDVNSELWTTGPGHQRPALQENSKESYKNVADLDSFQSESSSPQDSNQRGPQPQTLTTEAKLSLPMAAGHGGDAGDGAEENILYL

In this test the target is GST-RhoA (G17A) (UniProt P61586). Put plainly: pull-down; 20 ug GST-RhoA G17A bound to glutathione agarose, 60 min at 4 C, with lysates of normal MEFs held in suspension and then replated onto 10 ug/ml fibronectin for 30 to 120 min; bound Rgnef detected by immunoblotting; only the target purified. (In general: A western blot detects proteins with antibodies after separation by electrophoresis.)

No constants are given. Whether binding was seen depends on the method and setting. Binding seen in cells or lysates may run through a third protein. Some binding calls cover weakened binding; strength is not graded here.

For “Rgnef (p190RhoGEF) (from UniProt P97433 1-1700)”, the binding entry is listed as “binds”.
